Assay results as given in US20240024479A1, “NK CELLS OR T CELLS EXPRESSING CHIMERIC HEMATOPOIETIC GROWTH FACTOR RECEPTORS AND METHODS OF USE” (The United States of America, as represented by the …, priority 2020, published 2024).
For at least one compound, name, drawing or mass did not settle the structure.

What was measured:
[1] = test system: MPL-IL2RB-expressing NK cells; experiment: Adoptive transfer of NK cells expressing MPL-IL2RB into mice; type: in vivo, NSG mice; conditions: daily oral eltrombopag vs no drug
[2] = test system: NK cells transduced to express MPL or MPL-IL2RB chimeric receptors; experiment: Phospho-STAT5 and phospho-S6 signaling in transduced NK cells; type: cell-based, human
[3] = test system: c-MPL transduced NK cells; experiment: Proliferation of c-MPL-expressing human NK cells with thrombopoietin mimetics; type: cell-based; conditions: 4-5 days culture
Description: FIGS. 16A-16C show proliferation of human NK cells transduced to express GFP and c-MPL cultured for 4-5 days with the indicated concentrations of thrombopoietin (FIG. 16A), romiplostim (FIG. 16B), or eltrombopag (FIG. 16C). […] Mean and SEM of results from 3 blood donors are shown.
NK cells from PBMC from three blood donors were stimulated and transduced to express GFP and c-MPL, then were cultured for 4-5 days with thrombopoietin, romiplostim, or eltrombopag.

CC1=NN(c2ccc(C)c(C)c2)C(=O)/C1=N\Nc1cccc(-c2cccc(C(=O)O)c2)c1O [eltrombopag]
persistence of transferred MPL-IL2RB NK cells (whole body luminescence) [1]: dose dependent preservation
phosphorylated ribosomal protein S6 responses (mTOR activation) ([2]; NK cells expressing either MPL-IL2RB or MPL): induced
duration of increased phosphorylated STAT5 ([2]; eltrombopag 0.33 μg/ml): at least 24 hours
phosphorylated STAT5 ([2]; eltrombopag 0.33 μg/ml or romiplostim 1.5 ng/mL, compared with 5 U/mL IL-2): increased phosphorylated STAT5
proliferation of c-MPL transduced NK cells [3]: induce proliferation
